# From US20150147316A1
# Amino acid sequences for entries named in this document (tags omitted). A change or cut given only in a name is not applied to a line headed by its entry.
# UniProt P20138: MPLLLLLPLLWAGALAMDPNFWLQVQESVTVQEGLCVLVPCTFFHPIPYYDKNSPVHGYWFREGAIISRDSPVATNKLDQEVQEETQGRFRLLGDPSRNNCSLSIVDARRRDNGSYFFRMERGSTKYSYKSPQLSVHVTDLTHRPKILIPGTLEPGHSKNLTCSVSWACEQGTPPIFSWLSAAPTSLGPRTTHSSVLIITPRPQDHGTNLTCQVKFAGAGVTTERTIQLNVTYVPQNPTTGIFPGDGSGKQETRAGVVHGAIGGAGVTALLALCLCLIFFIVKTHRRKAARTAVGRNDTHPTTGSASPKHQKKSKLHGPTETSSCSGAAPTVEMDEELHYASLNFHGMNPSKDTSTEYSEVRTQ
# Results are given in words; binding and its absence hold for the method and conditions named. Some binding calls cover weakened binding; strength is not graded here.
# Columns and labels:
# [1] = molecular target: human CD33 (human) (UniProt P20138); test: flow cytometry on cells expressing human CD33
# [2] = molecular target: human CD33 (human) (UniProt P20138); test: EC50 binding determinations
binder,measurement,setting,value
"h2H12 antibody (2H12 HILG) (antibody, V domains shown) VH: QVQLVQSGAEVKKPGASVKVSCKASGYTFTNYDINWVRQAPGQGLEWIGWIYPGDGSTKYNEKFKAKATLTADTSTSTAYMELRSLRSDDTAVYYCASGYEDAMDYWGQGTTVTVSS VL: DIQMTQSPSSLSASVGDRVTINCKASQDINSYLSWFQQKPGKAPKTLIYRANRLVDGVPSRFSGSGSGQDYTLTISSLQPEDFATYYCLQYDEFPLTFGGGTKVEIK",binding,[1],binds
same,binding,[2],binds
